Source: the supplement of paper PMC9254222
Over roughly 1,100 compounds, “Wnt reporter firefly/Renilla luciferase ratio relative to plate median” has its median near 1.1; the highest 2% begin near 1.6. The entries are a selection whose mix differs from that of the whole data set.

System: HEK293T (UBE3A T485A transfected, BAR Wnt reporter)
Assay: Wnt reporter firefly/Renilla luciferase ratio relative to plate median (fold (linear ratio)); higher = more Wnt/beta-catenin reporter activation
Settings: 24 h
How it was run: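 Using Fugene 6, HEK293T cells in white 384-well plates (4500 cells/well; DMEM, 10% FBS, 37°C, 5% CO2) were transfected with a BAR firefly luciferase Wnt reporter, TK-Renilla and an expression plasmid. After four hours, robots dosed the chemicals at 0.01–100 uM, and a Dual-Glo luciferase readout followed 24 h later. Per-plate median-centred firefly/Renilla ratios gave Wnt activity, while per-plate median-centred raw Renilla signals gave cell health. Four biological replicates were averaged.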

Row | Structure (SMILES) | Wnt reporter firefly/Renilla luciferase ratio (concentration: 0.1 uM) | Wnt reporter firefly/Renilla luciferase ratio (concentration: 1 uM) | Wnt reporter firefly/Renilla luciferase ratio (concentration: 10 uM) | Wnt reporter firefly/Renilla luciferase ratio (concentration: 100 uM) | Wnt reporter firefly/Renilla luciferase ratio (concentration: 0.01 uM)
1 | CN(C)c1ccc(N=NS(=O)(=O)[O-])cc1.[Na+] [Fenaminosulf] | 1.24 | 0.87 | 1.16 | 0.855 | 
2 | Cn1cc[nH]c1=S [Methimazole] | 0.227 | 0.986 | 0.426 | 0.499 | 
3 | Cn1cnc([N+](=O)[O-])c1Sc1ncnc2nc[nH]c12 [Azathioprine] | 1.26 | 0.941 | 0.761 |  | 
4 | Cc1ccc(O)cc1 [p-Cresol] | 0.988 | 1.1 | 1.02 | 1.39 | 
5 | CC(=O)S[C@H](C(=O)N[C@H]1Cc2ccccc2[C@H]2CCC[C@@H](C(=O)O)N2C1=O)C(C)C [Ilepatril] | 0.975 | 0.925 | 0.894 | 0.899 | 
6 | C[C@]12CC[C@@H]3c4ccc(O)cc4CC[C@H]3[C@@H]1CCC2=O [Estrone] | 1.06 | 1.03 | 0.835 | 0.517 | 
7 | OCCNCCO [Diethanolamine] | 1.17 | 0.992 | 1.4 | 2.49 | 
8 | CCOC(=O)O[C@H](C)OC(=O)c1ccc2c(c1)cc(C(=O)NC1CCN(C(C)C)CC1)n2Cc1cc(-c2ccc(Cl)s2)on1.Cl | 1.02 | 1.13 | 1.14 |  | 
9 | Cn1c(=O)c2[nH]cnc2n(C)c1=O [Theophylline] | 1.11 | 0.908 | 1.01 | 1.11 | 
10 | CCOC(=O)C(C)(C)Oc1ccc(Cl)cc1 [Clofibrate] | 1.38 | 1.01 | 1.31 | 1.08 | 
11 | CC(C)CCCCCCOC(=O)C1CCCCC1C(=O)OCCCCCCC(C)C (centres undefined) [Diisononyl cyclohexane-1,2-dicarboxylate] | 1.08 | 1.19 | 1.04 | 1.33 | 
12 | NC(=O)N/N=C/c1ccc([N+](=O)[O-])o1 [Nitrofurazone] | 1.22 | 1.02 | 0.506 | 0.32 | 
13 | Cc1ccc(N)cc1O [5-Amino-2-methylphenol] | 1.05 | 0.771 | 0.809 | 0.519 | 
14 | O=C1NC(=O)C(c2ccccc2)(c2ccccc2)N1 [5,5-Diphenylhydantoin] | 0.925 | 1.28 | 1.02 | 0.658 | 
15 | CCCCCCCCCCCCCCO [1-Tetradecanol] | 1.02 | 1.19 | 1.25 | 1.38 | 
16 | CC(=O)OC1C(=O)C2(C)C(O)CC3OCC3(OC(C)=O)C2C(OC(=O)c2ccccc2)C2(O)CC(OC(=O)C(O)C(NC(=O)c3ccccc3)c3ccccc3)C(C)=C1C2(C)C (centres undefined) [Taxol] | 0.822 | 0.575 | 0.409 | 1.98 | 1.29

Row | Structure (SMILES) | Wnt reporter firefly/Renilla luciferase ratio (concentration: 0.1 uM) | Wnt reporter firefly/Renilla luciferase ratio (concentration: 1 uM) | Wnt reporter firefly/Renilla luciferase ratio (concentration: 10 uM) | Wnt reporter firefly/Renilla luciferase ratio (concentration: 100 uM) | Wnt reporter firefly/Renilla luciferase ratio (concentration: 0.01 uM)
17 | Cc1c2ccccc2c(C)c2c1ccc1ccccc12 [7,12-Dimethylbenz(a)anthracene] | 1.03 | 0.839 | 0.496 |  | 
18 | CC[C@H](C)C(=O)O[C@H]1C[C@@H](C)C=C2C=C[C@H](C)[C@H](CC[C@@H]3C[C@@H](O)CC(=O)O3)[C@H]21 [Lovastatin] | 1.04 | 1.21 | 1.03 | 0.64 | 
19 | CC(C)(C)CC(C)(C)c1ccc(O)c(-n2nc3ccccc3n2)c1 [Octrizole] | 1.01 | 1.02 | 1.08 | 1.29 | 
20 | CCCCOCCOCCOCc1cc2c(cc1CCC)OCO2 [Piperonyl butoxide] | 1.02 | 1.17 | 1.2 | 1.23 | 0.694
21 | COc1cc(-c2nc(NC(=O)c3cc4cc(C)cc(C)c4n3CC(=O)O)sc2CCC2CCCCC2)c(OC)cc1Cl.O=C(O)C(F)(F)F | 1.1 | 0.944 | 0.988 | 1.4 | 
22 | CC(O)CO (centres undefined) [1,2-Propylene glycol] | 0.815 | 0.913 | 0.875 | 1.23 | 
23 | Sc1nc2ccccc2s1 [2-Mercaptobenzothiazole] |  | 1.62 |  | 1.69 | 
24 | Cc1cc(SC2=C(O)C[C@@](CCc3ccc(N)cc3)(C(C)C)OC2=O)c(C(C)(C)C)cc1CO | 1.12 | 0.9 | 1.24 | 0.341 | 
25 | Oc1ccc2ccccc2c1 [2-Naphthalenol] | 1.3 | 1.15 | 1.31 | 0.613 | 
26 | CCc1c2c(nc3ccc(OC(=O)N4CCC(N5CCCCC5)CC4)cc13)-c1cc3c(c(=O)n1C2)COC(=O)C3(O)CC (centres undefined) [Irinotecan] | 1.6 | 1.31 | 0.401 | 0.407 | 1.4
27 | Oc1ccc(C2COc3cc(O)ccc3C2)cc1 (centres undefined) [Equol] | 1.08 | 1.22 | 1.32 | 0.113 | 1.17
28 | C=CCOC(Cn1ccnc1)c1ccc(Cl)cc1Cl (centres undefined) [Imazalil] | 1.04 | 0.994 | 0.916 | 0.377 | 1.1
29 | CC1=C(/C=C/C(C)=C/C=C/C(C)=C/C(=O)O)C(C)(C)CCC1 [all-trans-Retinoic acid] | 0.99 | 0.918 | 1.36 | 0.4 | 
30 | Cc1cc(Nc2cc(N3CCN(C)CC3)nc(Sc3ccc(NC(=O)C4CC4)cc3)n2)n[nH]1 | 0.687 | 0.649 | 0.517 |  | 1.37
31 | O=C(O)c1ccccc1-n1cc(C(=O)O)c(=O)c2cc(Nc3c(F)cc(F)cc3Cl)c(Cl)cc21 | 1.24 | 1.08 | 1.21 | 1.13 | 

Some values from the results shown.
Value for `CCOC(=O)C(C)(C)Oc1ccc(Cl)cc1` [Clofibrate] under Wnt reporter firefly/Renilla luciferase ratio (concentration: 10 uM): 1.31
Value for `Cn1cc[nH]c1=S` [Methimazole] under Wnt reporter firefly/Renilla luciferase ratio (concentration: 0.1 uM): 0.227
